According to the supplement of paper PMC10849652:
Some of the results follow.

Chains of the proteins cited; added tags and fusions are not shown. Lines headed by an entry give the natural chain unless they say otherwise; changes in a name come on top.
UniProt P62699: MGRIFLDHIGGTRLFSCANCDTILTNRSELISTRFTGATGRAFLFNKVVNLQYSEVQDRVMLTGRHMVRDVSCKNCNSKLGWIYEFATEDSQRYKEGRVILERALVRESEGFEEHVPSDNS
UniProt Q96TA2: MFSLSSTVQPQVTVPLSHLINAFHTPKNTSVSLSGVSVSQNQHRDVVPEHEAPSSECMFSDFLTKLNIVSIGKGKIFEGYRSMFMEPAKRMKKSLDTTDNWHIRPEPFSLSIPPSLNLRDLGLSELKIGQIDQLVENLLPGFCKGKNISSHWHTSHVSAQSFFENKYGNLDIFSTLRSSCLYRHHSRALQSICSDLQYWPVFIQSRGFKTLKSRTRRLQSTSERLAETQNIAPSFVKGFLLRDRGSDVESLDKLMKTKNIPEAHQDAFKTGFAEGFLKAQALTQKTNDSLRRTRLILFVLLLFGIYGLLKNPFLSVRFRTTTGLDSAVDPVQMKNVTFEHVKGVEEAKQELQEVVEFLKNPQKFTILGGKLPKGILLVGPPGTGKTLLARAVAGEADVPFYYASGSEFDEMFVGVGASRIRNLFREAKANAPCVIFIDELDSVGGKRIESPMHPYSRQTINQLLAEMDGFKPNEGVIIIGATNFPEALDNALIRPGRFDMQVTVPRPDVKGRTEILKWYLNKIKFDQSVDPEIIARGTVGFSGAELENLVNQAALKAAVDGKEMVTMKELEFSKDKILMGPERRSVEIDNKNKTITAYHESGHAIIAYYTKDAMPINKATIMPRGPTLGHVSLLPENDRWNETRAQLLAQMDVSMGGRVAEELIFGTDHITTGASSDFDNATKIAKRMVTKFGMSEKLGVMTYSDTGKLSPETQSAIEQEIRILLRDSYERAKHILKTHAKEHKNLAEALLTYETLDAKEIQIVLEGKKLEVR
UniProt Q969M3: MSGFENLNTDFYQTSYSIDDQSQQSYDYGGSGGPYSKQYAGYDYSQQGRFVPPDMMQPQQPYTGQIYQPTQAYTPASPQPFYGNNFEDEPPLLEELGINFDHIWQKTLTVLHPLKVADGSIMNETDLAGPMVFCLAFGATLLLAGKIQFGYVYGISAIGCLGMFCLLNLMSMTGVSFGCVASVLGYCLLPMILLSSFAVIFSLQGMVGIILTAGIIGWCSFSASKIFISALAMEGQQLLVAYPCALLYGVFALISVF
UniProt O60315: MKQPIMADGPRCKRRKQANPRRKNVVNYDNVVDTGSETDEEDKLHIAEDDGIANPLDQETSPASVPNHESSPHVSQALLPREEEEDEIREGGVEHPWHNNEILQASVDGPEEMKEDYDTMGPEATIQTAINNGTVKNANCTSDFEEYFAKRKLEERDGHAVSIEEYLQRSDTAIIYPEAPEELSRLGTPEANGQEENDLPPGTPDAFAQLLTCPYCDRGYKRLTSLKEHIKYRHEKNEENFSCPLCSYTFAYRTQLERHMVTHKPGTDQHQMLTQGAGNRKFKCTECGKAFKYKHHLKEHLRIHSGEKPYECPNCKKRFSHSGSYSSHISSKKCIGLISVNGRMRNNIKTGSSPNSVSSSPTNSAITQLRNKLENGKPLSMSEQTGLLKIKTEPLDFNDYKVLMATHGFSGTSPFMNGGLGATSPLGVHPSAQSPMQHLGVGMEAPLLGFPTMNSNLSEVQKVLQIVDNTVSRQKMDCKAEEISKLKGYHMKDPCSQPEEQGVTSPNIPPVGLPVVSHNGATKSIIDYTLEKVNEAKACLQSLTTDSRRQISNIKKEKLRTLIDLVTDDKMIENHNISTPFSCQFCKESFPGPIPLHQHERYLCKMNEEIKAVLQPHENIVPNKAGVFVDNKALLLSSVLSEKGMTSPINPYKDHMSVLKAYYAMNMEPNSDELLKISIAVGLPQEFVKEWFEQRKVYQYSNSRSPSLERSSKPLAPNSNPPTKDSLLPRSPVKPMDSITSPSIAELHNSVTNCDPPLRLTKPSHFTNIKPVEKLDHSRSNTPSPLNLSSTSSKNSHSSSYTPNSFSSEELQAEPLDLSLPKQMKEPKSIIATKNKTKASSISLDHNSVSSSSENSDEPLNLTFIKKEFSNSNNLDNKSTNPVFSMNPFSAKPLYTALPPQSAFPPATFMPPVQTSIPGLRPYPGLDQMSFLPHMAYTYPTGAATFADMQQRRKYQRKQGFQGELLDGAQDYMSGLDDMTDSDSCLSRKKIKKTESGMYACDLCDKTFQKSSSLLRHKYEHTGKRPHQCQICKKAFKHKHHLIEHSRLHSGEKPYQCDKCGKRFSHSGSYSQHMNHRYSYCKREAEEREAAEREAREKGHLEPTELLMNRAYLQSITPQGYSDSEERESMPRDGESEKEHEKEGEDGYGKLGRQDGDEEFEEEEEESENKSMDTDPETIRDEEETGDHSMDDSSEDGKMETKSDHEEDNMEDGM
UniProt Q9NP64: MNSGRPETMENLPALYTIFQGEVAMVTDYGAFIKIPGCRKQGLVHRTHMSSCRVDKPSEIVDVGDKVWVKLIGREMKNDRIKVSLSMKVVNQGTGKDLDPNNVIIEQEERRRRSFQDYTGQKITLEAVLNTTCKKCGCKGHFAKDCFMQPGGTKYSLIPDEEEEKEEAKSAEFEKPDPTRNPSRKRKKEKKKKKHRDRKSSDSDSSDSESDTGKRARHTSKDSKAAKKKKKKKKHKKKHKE
UniProt Q8IWT0: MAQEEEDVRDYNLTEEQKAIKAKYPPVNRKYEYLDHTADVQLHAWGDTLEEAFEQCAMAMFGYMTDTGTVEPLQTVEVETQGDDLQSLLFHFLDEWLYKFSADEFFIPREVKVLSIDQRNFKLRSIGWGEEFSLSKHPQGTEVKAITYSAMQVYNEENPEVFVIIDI
UniProt P61981: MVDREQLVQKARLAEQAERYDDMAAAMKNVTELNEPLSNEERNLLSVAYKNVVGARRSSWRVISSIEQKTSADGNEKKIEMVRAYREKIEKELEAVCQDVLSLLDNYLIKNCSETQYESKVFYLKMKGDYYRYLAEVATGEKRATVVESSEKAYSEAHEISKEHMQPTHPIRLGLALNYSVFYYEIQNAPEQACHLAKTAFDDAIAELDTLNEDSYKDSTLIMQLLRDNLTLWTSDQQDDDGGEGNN
UniProt Q9NYG2: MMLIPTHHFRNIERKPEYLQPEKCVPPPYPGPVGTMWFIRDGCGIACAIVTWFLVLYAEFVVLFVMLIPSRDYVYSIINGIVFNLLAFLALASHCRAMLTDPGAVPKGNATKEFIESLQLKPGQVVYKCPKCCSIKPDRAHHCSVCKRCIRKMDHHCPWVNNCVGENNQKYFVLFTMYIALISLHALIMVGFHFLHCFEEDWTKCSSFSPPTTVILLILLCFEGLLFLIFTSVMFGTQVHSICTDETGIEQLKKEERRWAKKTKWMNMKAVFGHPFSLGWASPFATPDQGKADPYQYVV
UniProt Q9C0E2: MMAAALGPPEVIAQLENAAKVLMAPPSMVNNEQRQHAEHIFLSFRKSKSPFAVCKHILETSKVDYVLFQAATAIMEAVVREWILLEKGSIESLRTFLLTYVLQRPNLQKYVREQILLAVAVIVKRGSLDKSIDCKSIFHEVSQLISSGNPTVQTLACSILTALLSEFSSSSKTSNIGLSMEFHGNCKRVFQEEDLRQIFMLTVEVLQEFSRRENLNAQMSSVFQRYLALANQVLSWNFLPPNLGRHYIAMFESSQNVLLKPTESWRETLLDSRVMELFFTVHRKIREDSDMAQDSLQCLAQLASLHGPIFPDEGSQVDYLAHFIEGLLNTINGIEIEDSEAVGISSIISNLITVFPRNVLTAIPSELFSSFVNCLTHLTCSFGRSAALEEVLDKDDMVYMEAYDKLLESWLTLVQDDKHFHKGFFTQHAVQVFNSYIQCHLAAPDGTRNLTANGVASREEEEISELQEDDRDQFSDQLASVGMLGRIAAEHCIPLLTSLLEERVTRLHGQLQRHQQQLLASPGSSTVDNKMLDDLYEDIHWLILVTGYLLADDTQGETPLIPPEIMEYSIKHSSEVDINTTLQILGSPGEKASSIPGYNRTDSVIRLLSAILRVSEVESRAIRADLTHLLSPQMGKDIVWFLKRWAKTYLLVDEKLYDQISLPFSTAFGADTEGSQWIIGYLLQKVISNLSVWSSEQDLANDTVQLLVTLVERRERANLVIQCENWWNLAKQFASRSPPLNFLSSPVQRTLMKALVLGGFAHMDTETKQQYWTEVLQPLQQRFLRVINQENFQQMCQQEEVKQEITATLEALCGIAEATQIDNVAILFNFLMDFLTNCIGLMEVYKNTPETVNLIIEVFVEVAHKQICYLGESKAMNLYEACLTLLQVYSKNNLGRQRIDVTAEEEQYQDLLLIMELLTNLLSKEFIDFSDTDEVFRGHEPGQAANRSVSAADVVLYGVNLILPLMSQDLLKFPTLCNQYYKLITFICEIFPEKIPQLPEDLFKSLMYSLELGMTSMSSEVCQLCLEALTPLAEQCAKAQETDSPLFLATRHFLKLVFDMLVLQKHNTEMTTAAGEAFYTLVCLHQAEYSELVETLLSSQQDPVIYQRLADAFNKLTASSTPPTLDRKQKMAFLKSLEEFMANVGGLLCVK
UniProt O43542: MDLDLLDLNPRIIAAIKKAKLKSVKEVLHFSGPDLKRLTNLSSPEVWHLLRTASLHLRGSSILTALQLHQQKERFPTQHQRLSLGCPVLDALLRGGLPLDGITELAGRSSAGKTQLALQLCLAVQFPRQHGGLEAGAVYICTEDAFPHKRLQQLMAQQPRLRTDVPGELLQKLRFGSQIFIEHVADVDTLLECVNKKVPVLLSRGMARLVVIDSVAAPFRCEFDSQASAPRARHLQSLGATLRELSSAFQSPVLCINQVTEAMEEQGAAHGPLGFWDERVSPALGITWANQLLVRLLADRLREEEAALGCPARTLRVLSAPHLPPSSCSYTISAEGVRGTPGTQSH
UniProt Q7Z739: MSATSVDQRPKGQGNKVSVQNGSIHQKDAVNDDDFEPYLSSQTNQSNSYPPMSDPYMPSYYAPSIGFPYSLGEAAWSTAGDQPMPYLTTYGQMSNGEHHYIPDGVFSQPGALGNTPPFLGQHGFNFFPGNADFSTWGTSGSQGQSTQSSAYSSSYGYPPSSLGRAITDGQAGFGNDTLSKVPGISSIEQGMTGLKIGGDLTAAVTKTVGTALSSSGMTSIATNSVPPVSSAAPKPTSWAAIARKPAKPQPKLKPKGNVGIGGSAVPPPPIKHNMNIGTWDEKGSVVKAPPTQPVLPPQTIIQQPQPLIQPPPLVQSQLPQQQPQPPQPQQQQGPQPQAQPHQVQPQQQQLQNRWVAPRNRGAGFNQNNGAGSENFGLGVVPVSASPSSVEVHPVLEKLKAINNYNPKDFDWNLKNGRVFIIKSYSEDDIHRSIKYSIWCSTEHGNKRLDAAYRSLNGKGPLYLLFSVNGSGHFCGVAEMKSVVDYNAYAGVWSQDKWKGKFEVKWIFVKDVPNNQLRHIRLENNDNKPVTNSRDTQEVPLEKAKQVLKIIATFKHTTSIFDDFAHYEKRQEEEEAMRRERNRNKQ
UniProt Q5VVQ6: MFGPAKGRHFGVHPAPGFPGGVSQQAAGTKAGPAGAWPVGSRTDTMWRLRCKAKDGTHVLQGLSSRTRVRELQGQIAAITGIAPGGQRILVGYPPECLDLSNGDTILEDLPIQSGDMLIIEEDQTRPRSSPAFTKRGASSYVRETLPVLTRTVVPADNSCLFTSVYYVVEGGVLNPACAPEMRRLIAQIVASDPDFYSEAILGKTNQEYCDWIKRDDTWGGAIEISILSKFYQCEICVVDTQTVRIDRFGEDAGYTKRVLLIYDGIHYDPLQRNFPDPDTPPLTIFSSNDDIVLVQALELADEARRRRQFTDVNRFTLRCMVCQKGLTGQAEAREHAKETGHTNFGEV
UniProt Q96JP5: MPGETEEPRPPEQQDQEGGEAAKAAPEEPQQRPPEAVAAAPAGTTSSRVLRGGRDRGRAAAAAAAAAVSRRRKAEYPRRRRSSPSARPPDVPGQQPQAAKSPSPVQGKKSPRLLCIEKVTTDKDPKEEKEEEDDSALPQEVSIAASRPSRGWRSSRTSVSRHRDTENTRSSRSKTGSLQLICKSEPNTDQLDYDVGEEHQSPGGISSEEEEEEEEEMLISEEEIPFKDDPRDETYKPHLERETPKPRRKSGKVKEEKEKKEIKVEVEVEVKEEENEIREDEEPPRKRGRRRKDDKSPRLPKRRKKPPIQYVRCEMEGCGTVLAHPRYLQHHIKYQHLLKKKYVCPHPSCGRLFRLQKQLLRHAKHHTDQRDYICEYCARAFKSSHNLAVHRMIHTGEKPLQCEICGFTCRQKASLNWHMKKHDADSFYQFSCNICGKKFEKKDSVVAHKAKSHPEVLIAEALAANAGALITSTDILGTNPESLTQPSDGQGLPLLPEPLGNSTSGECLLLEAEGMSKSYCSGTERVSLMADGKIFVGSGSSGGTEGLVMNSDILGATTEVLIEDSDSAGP
UniProt Q9H8U3: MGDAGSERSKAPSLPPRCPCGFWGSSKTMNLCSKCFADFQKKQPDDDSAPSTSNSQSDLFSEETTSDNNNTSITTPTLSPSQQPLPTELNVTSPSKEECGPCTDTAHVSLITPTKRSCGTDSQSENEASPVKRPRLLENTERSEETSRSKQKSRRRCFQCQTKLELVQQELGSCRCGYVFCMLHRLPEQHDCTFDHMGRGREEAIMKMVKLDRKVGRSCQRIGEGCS

Experiments:
Test in all cases: log2 fold change, soluble protein after heating vs DMSO (PISA); higher = thermal stabilisation; K562 lysate, 10 uM; active = over 0.2 and 3.5 SD of the protein, either way, in both replicates (recomputed)
[1] = compound: C1=CC=C(C=C1)[C@H](COC2=CC3=C(C=C2)NC(=O)N3)NC(=O)C4=CC=CN(C4=O)CC5=CC(=C(C=C5)F)F
Outline: (§1)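 To prepare the extract, K562 pellets were dounce-homogenised in PBS pH 7.4 with 1 mM MgCl2, giving crude material at 1 mg/mL protein. This was treated with 10 μM compound for 30 min, then heated in aliquots for 3 min over 48°C-58°C before pooling and addition of NP-40 to 0.5% at 4°C. Centrifugation at 21,000xg for 90 min left soluble protein in the supernatant, which TMTpro 16plex LC-MS/MS quantified with equalised channel sums. Results are log-two fold changes in thermal stability compared with solvent controls, from duplicates.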

[2] = compound: CC1=C(SC2=C1C(=N[C@H](C3=NN=C(N32)C)CC(=O)N)C4=CC=C(C=C4)Cl)C
Outline: as §1

[3] = compound: CC1=C2C(=CC=C1)N=C(N(C2=O)C3=CC=CC=C3C)CN4C=NC5=C(N=CN=C54)N
Outline: as §1

[4] = compound: Cc1sc2c(c1C)C(c1ccc(Cl)cc1)=N[C@@H](CC(=O)OC(C)(C)C)c1nnc(C)n1-2
Outline: as §1

[5] = compound: c1ccc([C@@H]2C[C@H]2NC2CCNCC2)cc1
Outline: as §1

Measured: log2 fold change

YPEL5 (UniProt P62699)
inactive: [1] 0.05 | [2] -0.007 | [3] -0.03 | [4] 0.059 | [5] 0.098

ZEB1 isoform 2 (UniProt P37275)
inactive: [1] -0.518 | [2] -0.056 | [3] 0.027 | [4] -0.083 | [5] -0.049

YWHAZ (UniProt E7EX29)
inactive: [1] 0.047 | [2] -0.02

YEATS2 (UniProt Q9ULM3)
inactive: [1] 0.028 | [2] 0.128 | [3] 0.045

ZBTB21 (UniProt Q9ULJ3)
inactive: [1] -0.014 | [2] -0.147 | [3] 0.038 | [4] 0.062 | [5] -0.046

YIF1A (UniProt O95070)
inactive: [1] -0.16 | [2] -0.009 | [3] 0.009 | [4] -0.005 | [5] 0.209

Fetched one by one from the entries so far, 4 records:
ZEB1 isoform 2 (UniProt P37275)
inactive: [1] -0.518 | [2] -0.056 | [3] 0.027 | [4] -0.083 | [5] -0.049

ZBTB21 (UniProt Q9ULJ3)
inactive: [1] -0.014 | [2] -0.147 | [3] 0.038 | [4] 0.062 | [5] -0.046

YIF1A (UniProt O95070)
inactive: [1] -0.16 | [2] -0.009 | [3] 0.009 | [4] -0.005 | [5] 0.209

YEATS2 (UniProt Q9ULM3)
inactive: [1] 0.028 | [2] 0.128 | [3] 0.045

Further records:

YIPF4 (UniProt Q9BSR8)
inactive: [1] -0.041 | [2] -0.064 | [3] -0.027 | [4] -0.075 | [5] 0.012

ZFYVE27 isoform 2 (UniProt Q5T4F4)
inactive: [1] 0.134 | [2] -0.013 | [3] 0.098 | [4] -0.124

ZFYVE21 isoform 2 (UniProt Q9BQ24)
inactive: [1] -0.01 | [2] 0.044 | [3] -0.065 | [4] -0.076 | [5] -0.012

YTHDF1 (UniProt Q9BYJ9)
inactive: [1] -0.031 | [2] -0.053 | [3] 0.106 | [4] 0.003 | [5] -0.097

ZFYVE19 (UniProt Q96K21)
inactive: [1] 0.076 | [2] 0.042 | [3] 0.012 | [4] -0.032 | [5] -0.183

YWHAB (UniProt P31946)
inactive: [1] -0.005 | [2] 0.006 | [3] -0.01 | [4] 0.048 | [5] 0.033

ZC2HC1A (UniProt Q96GY0)
inactive: [1] 0.059 | [2] -0.046 | [3] -0.018 | [4] 0.106 | [5] -0.058

YME1L1 (UniProt Q96TA2)
inactive: [1] 0.004 | [2] -0.021 | [3] 0.032 | [4] -0.008 | [5] 0.002

ZCCHC9 (UniProt Q8N567)
inactive: [1] 0.105 | [2] 0.029 | [3] -0.141 | [4] 0.01

YIPF3 (UniProt Q9GZM5)
inactive: [1] 0.01 | [2] -0.021 | [3] -0.007 | [4] -0.023 | [5] -0.008

ZBED8 (UniProt Q8IZ13)
inactive: [1] -0.089 | [2] 0.142 | [3] -0.108 | [4] 0.01

ZC3H4 (UniProt Q9UPT8)
inactive: [1] 0.046 | [2] 0.017 | [3] 0.007 | [4] 0.057 | [5] 0.008

YIPF5 isoform 3 (UniProt Q969M3)
inactive: [1] -0.018 | [2] -0.001 | [3] 0.002 | [4] 0.001 | [5] -0.113

ZFAND5 (UniProt O76080)
inactive: [1] 0.093 | [2] -0.031 | [3] 0.081 | [4] -0.027 | [5] -0.172

XPO1 (UniProt O14980)
inactive: [1] -0.024 | [2] 0.023 | [3] 0.012 | [4] 0.008 | [5] 0.023

ZFPL1 (UniProt O95159)
inactive: [1] 0.039 | [2] 0.048 | [3] -0.006 | [4] 0.136 | [5] -0.024

XRCC1 (UniProt F5H8D7)
inactive: [1] 0.138 | [2] 0.022 | [3] 0.099 | [4] -0.031

ZFYVE19 isoform 3 (UniProt Q96K21)
inactive: [1] 0.062 | [2] -0.075

ZC3H7A (UniProt Q8IWR0)
inactive: [1] -0.007 | [2] -0.023 | [3] 0.003 | [4] -0.053 | [5] 0.199

YKT6 (UniProt O15498)
inactive: [1] 0.012 | [2] -0.01 | [3] 0.019 | [4] -0.009 | [5] 0.036

ZFYVE26 (UniProt Q68DK2)
inactive: [1] -0.033 | [2] 0.082 | [3] 0.14

ZEB2 (UniProt O60315)
inactive: [1] 0.064 | [2] 0.049 | [3] 0.128 | [4] 0.045

ZADH2 (UniProt Q8N4Q0)
inactive: [1] -0.02 | [2] -0.031 | [3] 0.018 | [4] -0.183 | [5] 0.028

YBX2 (UniProt Q9Y2T7)
inactive: [1] -0.181 | [2] -0.123

YWHAZ (UniProt P63104)
inactive: [1] 0.008 | [2] -0.015 | [3] -0.018 | [4] -0.012 | [5] -0.015

YWHAH (UniProt Q04917)
inactive: [1] 0.001 | [2] -0.024 | [3] -0.034 | [4] 0.022 | [5] 0.084

ZFAND2B (UniProt Q8WV99)
inactive: [1] -0.017 | [2] 0.177 | [3] -0.023 | [4] -0.044 | [5] -0.219

ZCCHC17 (UniProt Q9NP64)
inactive: [1] 0.011 | [2] -0.046 | [3] -0.113 | [4] -0.024 | [5] -0.004

ZFHX4 isoform 5 (UniProt Q86UP3)
inactive: [1] 0.027 | [2] 0.203

ZC3H15 (UniProt Q8WU90)
inactive: [1] 0.057 | [2] 0.009 | [3] -0.007 | [4] 0.021 | [5] -0.048

ZBTB8OS (UniProt Q8IWT0)
inactive: [1] -0.043 | [2] 0.005 | [3] -0.017 | [4] -0.013 | [5] -0.001

XPNPEP1 isoform 3 (UniProt Q9NQW7)
inactive: [1] -0.007 | [2] -0.025 | [3] 0.002 | [4] 0.044 | [5] -0.006

YWHAG (UniProt P61981)
inactive: [1] 0.038 | [2] 0.001 | [3] -0.02 | [4] 0.018 | [5] -0.034

ZDHHC3 isoform 2 (UniProt Q9NYG2)
inactive: [1] -0.11 | [2] -0.101 | [3] 0.042 | [4] -0.025 | [5] 0.028

ZFP36L2 (UniProt P47974)
inactive: [1] 0.025 | [2] 0.029 | [3] -0.083 | [4] -0.192 | [5] -0.032

XPO4 (UniProt Q9C0E2)
inactive: [1] 0.004 | [2] -0.011 | [3] 0.005 | [4] -0.043 | [5] -0.02

YES1 (UniProt P07947)
inactive: [1] -0.068 | [2] -0.099 | [3] 0.009 | [4] -0.045 | [5] 0

XRN1 (UniProt Q8IZH2)
inactive: [1] -0.022 | [2] -0.117 | [3] -0.093 | [4] 0.162 | [5] 0.089

XRCC3 (UniProt O43542)
inactive: [1] 0.111 | [2] -0.053 | [3] -0.103 | [4] 0.013 | [5] -0.062

ZER1 (UniProt Q7Z7L7)
inactive: [1] -0.058 | [2] -0.053 | [3] 0.057 | [4] -0.085 | [5] -0.091

XRCC5 (UniProt P13010)
inactive: [1] 0.017 | [2] -0.005 | [3] 0.014 | [4] -0.002 | [5] 0.071

XXYLT1 (UniProt Q8NBI6)
inactive: [1] 0.028 | [2] 0.033 | [3] 0.034 | [4] 0.008 | [5] 0.012

YTHDF3 (UniProt Q7Z739)
inactive: [1] -0.111 | [2] 0.021 | [3] 0.063 | [4] -0.01 | [5] -0.018

YWHAZ (UniProt E7ESK7)
inactive: [1] -0.124 | [2] 0.465 | [3] -0.043 | [4] 0.127 | [5] -0.099

YOD1 (UniProt Q5VVQ6)
inactive: [1] 0.005 | [2] -0.004 | [3] 0.019 | [4] -0.039 | [5] -0.024

ZFP91 (UniProt Q96JP5)
inactive: [1] 0.04 | [2] 0.014 | [3] -0.047 | [4] -0.018 | [5] 0.033

ZFAND3 (UniProt Q9H8U3)
inactive: [1] -0.016 | [2] 0.055 | [3] -0.011 | [4] -0.083 | [5] 0.043

YAE1 (UniProt Q9NRH1)
inactive: [1] 0.079 | [2] -0.012 | [3] -0.063 | [4] -0.015 | [5] -0.013

YTHDC2 (UniProt Q9H6S0)
inactive: [1] 0.004 | [2] -0.018 | [3] -0.078 | [4] -0.002 | [5] 0.058

YBX3 isoform 2 (UniProt P16989)
inactive: [1] 0.092 | [2] -0.039 | [3] 0.051 | [4] -0.151 | [5] -0.023
